Experimental data taken from PubChem BioAssay AID2685 (National Center for Advancing Translational Sciences (NCATS), 2010).
The other results are listed elsewhere or left out. The main result of the screen is listed elsewhere. These columns were measured beside it and carry no call. Most of these compounds were active or inconclusive in the main read-out, so they are no random draw. Words in brackets tell the shape of the fitted curve; partial curves, single points and poor fits give uncertain potencies.

Assay: qHTS Assay for Lipid Storage Modulators in Drosophila S3 Cells;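 for cell number change: cells counted by Cell Tracker Red CMTPX staining in the red channel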
Settings: BODIPY lipid droplet fluorescence, 18-24 h; for cell number change: measured here: cell count max response, cells fed with added oleic acid
How it was run: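 Drosophila S3 cells got compounds at several concentrations plus oleic acid (400 uM solution). Laser-scanning cytometry with 488 nm excitation read lipid droplets at 500-530 nm and cells at 575-640 nm. Percent activity was relative to 20 uM Triacsin C.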

[1] = measured here: lipid fluorescence (Fed channel) AC50, cells fed with added oleic acid
[2] = measured here: cell number channel AC50, cells fed with added oleic acid

O=C(CSc1ccc(Cl)cc1)OCC(=O)N1CCN(c2ccccc2)CC1
cell number change: 3.94%
AC50 [1]: 7.31 µM [falling, partial curve, poor fit]

Cc1ccc(S(=O)(=O)CCC(=O)OCc2ccc(S(=O)(=O)C(C)C)cc2)cc1
cell number change: -33.7%
AC50 [2]: 4.11 µM [falling, single point]
AC50 [1]: 6.51 µM [falling, single point]

Cc1nc(C)c(C(=O)C2=C(O)C(=O)N(CCN(C)C)C2c2ccco2)s1 (stereo unspecified)
cell number change: -1.17%

CCOC(=O)c1ccc(NC(=O)N2CCN(Cc3ccccc3)CC2)cc1
cell number change: -15.4%
AC50 [2]: 6.51 µM [falling, single point]
AC50 [1]: 1.16 µM [falling, full curve, poor fit]

CC(=O)c1sc2ccccc2c1OC(=O)c1ccco1
cell number change: -7.94%
AC50 [1]: 0.00651 µM [falling, full curve, poor fit]

COC(=O)C1(Cc2cc(-c3ccc([N+](=O)[O-])cc3)no2)CCN(C(=O)OC(C)(C)C)CC1
cell number change: -15.8%
AC50 [2]: 6.51 µM [falling, single point]
AC50 [1]: 7.31 µM [falling, partial curve]

CC(=O)N(Cc1cccc(Br)c1)c1ccc(N2CCOCC2)c(Cl)c1
cell number change: -8.03%

CN(Cc1ccccc1)C1CCNCC1
cell number change: 7.66%
AC50 [1]: 5.17 µM [rising, full curve, poor fit]

Cc1ccccc1OCCC(=O)N(CC(=O)Nc1ccccc1C(F)(F)F)Cc1ccco1
cell number change: -47.5%
AC50 [2]: 29.1 µM [falling, single point]
AC50 [1]: 18.4 µM [falling, single point]

Nc1nncn1C(=O)c1cccs1
cell number change: -16.4%
AC50 [2]: 0.651 µM [falling, full curve]
AC50 [1]: 0.82 µM [falling, full curve, poor fit]

O=C(NCC(=O)N1CCN(S(=O)(=O)c2ccccc2)CC1)c1ccc(Br)o1
AC50 [1]: 1.03 µM [falling, full curve]

Cc1c(C(=O)Nc2cccc(C(F)(F)F)c2)oc2ccc(S(=O)(=O)N3CCOCC3)cc12
cell number change: 168%
AC50 [2]: 16.4 µM [rising, partial curve]
AC50 [1]: 20.6 µM [rising, single point]

Clc1cccc(N2CCN(CCNc3nc4ccccc4n4cnnc34)CC2)c1
cell number change: 86.5%

COCCCNC(=S)N(Cc1ccccc1)Cc1nc2ccccc2c(=O)[nH]1
cell number change: -10.4%

Cc1cc(C(=O)COC(=O)c2ccc(Cl)c(S(N)(=O)=O)c2)c(C)n1CC1CCCO1 (stereo unspecified)
cell number change: 53.9%
AC50 [2]: 5.8 µM [rising, partial curve]

Clc1ccccc1Cc1noc(CN2CCCCC2CCc2ccccn2)n1 (stereo unspecified)
cell number change: 3.3%
AC50 [1]: 0.651 µM [rising, single point]

Cc1ccc(S(=O)(=O)NCCC(=O)N2CCN(C/C=C/c3ccccc3)CC2)cc1
cell number change: -27.5%
AC50 [1]: 18.4 µM [falling, single point]

COC(=O)c1ccc(NS(=O)(=O)c2cccc3cccnc23)cc1
cell number change: 23.3%
AC50 [1]: 6.51 µM [rising, single point]

COc1ccccc1CN(C)C(C)C(=O)Nc1cccc(C(C)=O)c1 (stereo unspecified)
cell number change: -57.4%

N#Cc1c(NC(=O)CSc2nc3ccccc3c(=O)n2Cc2ccco2)sc2c1CCCC2
cell number change: -8.6%

Cc1ccc(O)c(NC(=O)CSc2n[nH]c(-c3ccccc3)n2)c1
cell number change: -26.5%

Fc1cccc2sc(Nc3nnc(-c4ccco4)o3)nc12
cell number change: -34.7%
AC50 [1]: 32.6 µM [falling, single point]

COc1ccc(/C=C2/CCOC2=O)cc1
cell number change: 38.4%
AC50 [2]: 23.1 µM [rising, single point]

Cn1cc2c(=O)n(/N=C/c3ccccc3)cnc2n1
cell number change: 16.5%
AC50 [2]: 3.26 µM [rising, single point]

O=C(C1CCCN(Cc2cccs2)C1)N1CCCCCC1 (stereo unspecified)
cell number change: 5.47%
AC50 [1]: 9.2 µM [rising, partial curve]

Cc1ccc(C(=O)Cn2c(N3CCOCC3)nc3c2c(=O)n(C)c(=O)n3C)cc1
cell number change: -4.14%

CC(C(=O)O)c1cccc(C(=O)c2ccccc2)c1 (stereo unspecified)
AC50 [1]: 2.91 µM [falling, full curve]

O=C(Cn1c(=O)[nH]c2sc3c(c2c1=O)CCCC3)NCC1CCCO1 (stereo unspecified)
cell number change: 24.2%
AC50 [1]: 0.291 µM [rising, full curve, poor fit]

CC(NC(=O)c1cc(COc2ccc3ncccc3c2)on1)c1ccc(F)cc1 (stereo unspecified)
cell number change: -41.3%
AC50 [1]: 29.1 µM [falling, single point]

Cc1nnc(NC(=O)c2sc3ccccc3c2Cl)s1
cell number change: -10.8%

COc1ccc2c(c1)cc1c(=O)n(CC(=O)NCCCN3CCOCC3)nc(C)n12
cell number change: -5.67%

CCCCC(=O)N/N=C(\C)c1cccc(NC(=O)C2CC2)c1
cell number change: 29.7%
AC50 [1]: 2.91 µM [rising, partial curve, poor fit]

COc1cc(C(=O)N2CCC(O)(c3ccccc3)CC2)cc(OC)c1OC
AC50 [2]: 0.731 µM [falling, single point]
AC50 [1]: 0.461 µM [falling, full curve]

CC(C)(C)CC(C)(C)c1ccc(O)c(CN2CCN(CCC#N)CC2)c1
cell number change: -56.8%
AC50 [2]: 20.6 µM [falling, single point]
AC50 [1]: 0.146 µM [rising, full curve, poor fit]

COCC(C)NC(=O)CSc1ncnc2sc(-c3ccccc3)cc12 (stereo unspecified)
cell number change: -3.23%
AC50 [1]: 0.00517 µM [falling, full curve, poor fit]

O=C1c2ccccc2C(=O)N1c1ccc(Cl)cc1
cell number change: -16.2%

Cn1cnc(S(=O)(=O)N2CCN(c3cccc(Cl)c3)CC2)c1
cell number change: -6.73%
AC50 [1]: 5.8 µM [falling, single point]

COc1ccc(/C(=N/O)C(C)(C)NO)cc1
cell number change: 2.26%
AC50 [1]: 3.26 µM [falling, full curve, poor fit]

CC(C)Sc1ncc(S(=O)(=O)c2ccccc2)c(=O)[nH]1
cell number change: -5.61%
AC50 [1]: 6.51 µM [rising, single point]

COC(=O)c1ccccc1NC(=O)[C@@H]1CCC(=O)N1C1OC(=O)c2c1ccc(OC)c2OC (stereo partly specified)
cell number change: 6.15%
AC50 [1]: 29.1 µM [rising, single point]

Nc1ncc(Br)cc1N=Cc1ccccc1
cell number change: 13.7%
AC50 [1]: 8.2 µM [rising, partial curve, poor fit]

CC(OC(=O)C1CCN(S(=O)(=O)c2ccc(C(C)(C)C)cc2)CC1)C(=O)N1CCOCC1 (stereo unspecified)
cell number change: -9.18%

COc1cc(/C=C2/C(=N)N3C(=NC2=O)SN=C3S(=O)(=O)C(C)C)ccc1OC(=O)c1ccco1
cell number change: 0.19%
AC50 [1]: 9.2 µM [falling, partial curve]

CCC(Oc1ccccc1)C(=O)Nc1ccc(S(=O)(=O)Nc2cnc3ccccc3n2)cc1 (stereo unspecified)
cell number change: -40.6%
AC50 [2]: 5.8 µM [falling, full curve]

Cc1cc(Cl)ccc1OCCCC(=O)NCc1ccncc1
cell number change: 8.2%

COc1ccc(C(=O)OCC(=O)NCCCc2ccccc2)cc1[N+](=O)[O-]
cell number change: -19.3%
AC50 [2]: 4.11 µM [falling, single point]
AC50 [1]: 3.66 µM [falling, single point]

Cc1cccc(C)c1OCC(O)CN1CCC(CN2C(=O)c3cccc4cccc(c34)C2=O)CC1 (stereo unspecified)
cell number change: -65.9%
AC50 [1]: 18.4 µM [falling, partial curve]

CC(=O)Nc1ncnc2c1c(-c1ccc(Cl)cc1)nn2C(C)(C)C
cell number change: -14%

O=C(Nc1ccc2c(c1)CCC2)c1cc2ccccc2o1
AC50 [2]: 6.51 µM [rising, partial curve, poor fit]
AC50 [1]: 0.103 µM [rising, full curve, poor fit]

CC(=O)Nc1ccc(NC(=O)CSC2=NS(=O)(=O)c3cc(F)ccc3N2)cc1
cell number change: 13.3%

CN1c2ccccc2C2(C)CCCC3=Cc4cccc([N+](=O)[O-])c4OC312 (stereo unspecified)
cell number change: -45.1%
AC50 [2]: 25.9 µM [falling, single point]
AC50 [1]: 29.1 µM [rising, single point]

COc1cccc(CNC(=O)CN(C)S(=O)(=O)c2ccc3c(c2)n(C)c(=O)c(=O)n3C)c1
cell number change: -2.12%
AC50 [1]: 6.51 µM [falling, single point]

CS(=O)(=O)Cc1cc(Sc2ccccc2)nc(-c2ccncc2)n1
cell number change: -13.2%

Nc1ccc(Oc2ccc(Br)cc2)cc1
cell number change: 3.65%
AC50 [1]: 0.82 µM [rising, full curve, poor fit]

COc1ccc2cc(C(=O)N/N=C/c3sc4ccccc4c3O)ccc2c1
cell number change: -22.5%
AC50 [1]: 1.64 µM [rising, partial curve]

Nc1[nH]c(=S)nc2nc(-c3ccccc3)c(-c3ccccc3)nc12
cell number change: -8.95%
AC50 [1]: 0.116 µM [falling, single point]

Clc1ccc(COn2nnc3ccccc32)c(Cl)c1
cell number change: -14.6%
AC50 [1]: 0.461 µM [falling, full curve]

COC(=O)c1cc(=O)n(Cc2ccc(OC)c(OC)c2)c(=Nc2ccc(F)cc2)s1
cell number change: -15.3%
AC50 [1]: 0.00461 µM [rising, full curve, poor fit]

CC1CCC(NC(=O)Cn2c(=O)oc3ccccc32)CC1 (stereo unspecified)
AC50 [1]: 0.58 µM [falling, single point]

CCOc1ccc(C(=O)NCC(=O)NCC(c2ccccc2OC)N2CCCC2)cc1 (stereo unspecified)
cell number change: 25.6%

C[C@@H](C(=O)Nc1cccnc1)n1c(=O)[nH]c2ccccc2c1=O
cell number change: -5.9%
AC50 [1]: 0.58 µM [falling, single point]

COC(C/C=C/[C@@H](O)COCc1ccccc1)OC
cell number change: 0.77%
AC50 [1]: 6.51 µM [rising, partial curve, poor fit]

Cc1cccc(N2CCN(C(=O)C(Cc3ccccc3)n3cccc3)CC2)c1C (stereo unspecified)
cell number change: 51.5%
AC50 [2]: 29.1 µM [rising, single point]
AC50 [1]: 8.2 µM [rising, partial curve]
